From PubChem BioAssay AID330 (DTP/NCI, 2004)
The list is a part of this screen's results and no random one: it is rich in T/C values a quarter to a half above the control, in often repeated tests (any T/C) and in doses without a T/C. Further doses and runs are listed elsewhere. T/C is the treated group as % of the vehicle group. Some entries give survivors of the animals treated and no T/C: the source files T/C as zero there, which appears to mark a toxic dose or a test without result, not a measured value. Some doses without a T/C left all or most animals alive at the check, yet need not have been tolerated: survival well below the control is almost never listed, so the zero probably covers shortened survival too. Counts of survivors are from the toxicity check (mostly the fifth day) where no day follows; animals may have died later. Schedules are NCI's codes, read here as Q, the interval in days (D) or hours (H), X, the number of doses. Some entries hold several experiments; the results are listed from low to high. For survival time, the PubChem record calls one and a half times the control and up active, and a quarter to a half above the control has no call in these data; cut-offs in other NCI protocols can differ.

System: P388 leukemia ip, CD2F1 mice, survival T/C
Experiment: NCI In Vivo Anticancer Drug Screen. Data for tumor model P388 Leukemia (intraperitoneal) in CD2F1 (CDF1) mice
Conditions: T/C endpoint: median survival time, higher T/C = longer survival
[1] = dose: 240.0 mg/kg/injection, schedule: Q01DX005 (ip), vehicle: saline
[2] = dose: 200.0 mg/kg/injection, schedule: Q01DX005 (ip), vehicle: saline with Tween-80
[3] = dose: 50.0 mg/kg/injection, schedule: Q01DX009 (ip), vehicle: saline with Tween-80
[4] = dose: 100.0 mg/kg/injection, schedule: Q01DX009 (ip), vehicle: saline with Tween-80
[5] = dose: 100.0 mg/kg/injection, schedule: Q01DX005 (ip), vehicle: Klucel (hydroxypropylcellulose) (HPC)
[6] = dose: 100.0 mg/kg/injection, schedule: Q01DX005 (ip), vehicle: saline with Tween-80
[7] = dose: 200.0 mg/kg/injection, schedule: Q01DX009 (ip), vehicle: saline with Tween-80
[8] = dose: 240.0 mg/kg/injection, schedule: Q01DX005 (ip), vehicle: Klucel (hydroxypropylcellulose) (HPC)
[9] = dose: 200.0 mg/kg/injection, schedule: Q01DX005 (ip), vehicle: Klucel (hydroxypropylcellulose) (HPC)
[10] = dose: 400.0 mg/kg/injection, schedule: Q04DX002 (ip), vehicle: saline with Tween-80
[11] = dose: 240.0 mg/kg/injection, schedule: Q01DX005 (ip), vehicle: saline with Tween-80
[12] = dose: 400.0 mg/kg/injection, schedule: Q01DX009 (ip), vehicle: saline
[13] = dose: 600.0 mg/kg/injection, schedule: Q01DX009 (ip), vehicle: saline

With `N=C(N)c1ccc(-c2ccc(-c3ccc(C(=N)N)cc3)o2)cc1` the T/C (dose: 12.5 mg/kg/injection, schedule: Q01DX009 (ip), vehicle: saline with Tween-80) was 128 % of control.
In the case of `O=c1nc2n(CCO)c3ccccc3cc-2c(=O)[nH]1`, the survivor count [1] was 6 of 6.
With `OCCCC1CCCCN1` (stereo not drawn) the survivor count (dose: 100.0 mg/kg/injection, schedule: Q01DX001 (ip), vehicle: saline) was 6 of 6.
In the case of `NC12CC3CC(CC(C3)C1)C2`, the survivor count [2] was 0 of 5.
In the case of `CC1CCCC(NC(=O)N(CCCl)N=O)C1` (stereo not drawn), the T/C (dose: 2.0 mg/kg/injection, schedule: Q04DX003 (ip), vehicle: saline with Tween-80) was 145 % of control, the T/C (dose: 8.0 mg/kg/injection, schedule: Q04DX003 (ip), vehicle: saline with Tween-80) was 131 % of control and the survivor count [3] was 6 of 6. For the same compound, the survivor count [4] was 6 of 6 and the survivor count (dose: 100.0 mg/kg/injection, schedule: Q04DX003 (ip), vehicle: saline with Tween-80) was 6 of 6.
For `Cc1cn(CCCCCCOc2c3occc3cc3ccc(=O)oc23)c(=O)[nH]c1=O`, the survivor count [5] was 5 of 6.
`O=C(O)c1c2ccccc2nc2ccccc12` was tested, and the survivor count [6] was 0 of 5 and 3 of 5 and the survivor count [2] was 0 of 5.
In the case of `C/C(=N\NC(=S)N1CCCCCC1)c1ccccn1`, the survivor count [3] was 3 of 6, the survivor count [4] was 3 of 6 and the survivor count [7] was 0 of 6.
`CN(C)CCCNc1c2ccccc2nc2c1c(=O)n(C)c(=O)n2C` was tested, and the survivor count [1] was 0 of 6.
For `[CH3][Sn]([CH3])([N]=C=S)[N]=C=S.c1ccc(-c2nnc(-c3ccccn3)nc2-c2ccccc2)cc1`, the survivor count [8] was 0 of 6.
For `O=P(CCCCP(=O)(c1ccccc1)c1ccccc1)(c1ccccc1)c1ccccc1.[Cl][Sn]([Cl])([c]1ccccc1)[c]1ccccc1`, the T/C (dose: 6.25 mg/kg/injection, schedule: Q01DX005 (ip), vehicle: Klucel (hydroxypropylcellulose) (HPC)) was 126 and 130 % of control, the T/C (dose: 12.5 mg/kg/injection, schedule: Q01DX005 (ip), vehicle: Klucel (hydroxypropylcellulose) (HPC)) was 140 % of control and the survivor count (dose: 25.0 mg/kg/injection, schedule: Q01DX005 (ip), vehicle: Klucel (hydroxypropylcellulose) (HPC)) was 0 of 6. The survivor count (dose: 50.0 mg/kg/injection, schedule: Q01DX005 (ip), vehicle: Klucel (hydroxypropylcellulose) (HPC)) was 1 of 6, the survivor count [5] was 0 of 6 and the survivor count [9] was 0 of 6.
In the case of `COC(=O)Nc1nc2ccc(C(=O)OCC(C)C)cc2[nH]1`, the survivor count [10] was 6 of 6.
With `CCO/C=C1/N=C(Cc2ccc(Br)cc2)OC1=O` the survivor count [11] was 6 of 6.
In the case of `CNC(=O)OCc1c(COC(=O)NC)c(-c2ccc(OC)cc2)n2c1CCC2`, the T/C (dose: 12.5 mg/kg/injection, schedule: Q01DX009 (ip), vehicle: Klucel (hydroxypropylcellulose) (HPC)) was 132 % of control, the T/C (dose: 25.0 mg/kg/injection, schedule: Q01DX009 (ip), vehicle: Klucel (hydroxypropylcellulose) (HPC)) was 132 % of control and the T/C (dose: 50.0 mg/kg/injection, schedule: Q01DX009 (ip), vehicle: Klucel (hydroxypropylcellulose) (HPC)) was 127 and 131 % of control. The T/C (dose: 100.0 mg/kg/injection, schedule: Q01DX009 (ip), vehicle: Klucel (hydroxypropylcellulose) (HPC)) was 125 and 129 % of control and the survivor count (dose: 200.0 mg/kg/injection, schedule: Q01DX009 (ip), vehicle: Klucel (hydroxypropylcellulose) (HPC)) was 5 of 6.
In the case of `CN(C)CCNc1ccc(CO)c2sc3ccccc3c(=O)c12`, the T/C [2] was 138 % of control.
In the case of `CC[C@@]1(O)C(=O)OCc2c1cc1n(c2=O)Cc2cc3c(N)cccc3nc2-1`, the T/C (dose: 0.06 mg/kg/injection, schedule: Q01DX005 (ip), vehicle: saline with Tween-80) was 140 % of control, the survivor count (dose: 1.0 mg/kg/injection, schedule: Q01DX005 (ip), vehicle: saline with Tween-80) was 6 of 6 and the survivor count (dose: 2.0 mg/kg/injection, schedule: Q01DX005 (ip), vehicle: saline with Tween-80) was 6 of 6. The survivor count (dose: 4.0 mg/kg/injection, schedule: Q01DX005 (ip), vehicle: saline with Tween-80) was 6 of 6.
For `O=[N+]([O-])c1ccc(Sc2ccc(Cl)cc2)c2nonc12`, the survivor count [3] was 4 of 6 and the survivor count [4] was 0 of 6.
In the case of `CN(C)CCC=C1c2ccccc2CCc2ccccc21`, the survivor count (dose: 100.0 mg/kg/injection, schedule: Q01DX005 (ip), vehicle: saline) was 0 of 6 and the survivor count (dose: 200.0 mg/kg/injection, schedule: Q01DX005 (ip), vehicle: saline) was 0 of 6.
With `NC(CSC(c1ccccc1)(c1ccccc1)c1ccc(CO)cc1)C(=O)O` (stereo not drawn) the T/C (dose: 25.0 mg/kg/injection, schedule: Q01DX009 (ip), vehicle: saline with Tween-80) was 136 % of control and the T/C [3] was 136 % of control.
`Cc1cc(O)ccc1O` was tested, and the survivor count [12] was 0 of 6 and the survivor count [13] was 0 of 6.
`FC(F)(F)C1=C(C(F)(F)F)SP(Cl)(Cl)(c2ccccc2)S1` was tested, and the survivor count (dose: 150.0 mg/kg/injection, schedule: Q04DX003 (ip), vehicle: saline with Tween-80) was 2 of 6 and the survivor count (dose: 300.0 mg/kg/injection, schedule: Q04DX003 (ip), vehicle: saline with Tween-80) was 0 of 6.
With `N=C(N)c1ccc(-c2[nH]c3cc(C(=N)N)ccc3c2N)cc1` the survivor count (dose: 100.0 mg/kg/injection, schedule: Q04DX003 (ip), vehicle: saline) was 0 of 6, the survivor count (dose: 200.0 mg/kg/injection, schedule: Q04DX003 (ip), vehicle: saline) was 0 of 6 and the survivor count (dose: 400.0 mg/kg/injection, schedule: Q04DX003 (ip), vehicle: saline) was 0 of 6.
With `C[Si](C)(C)CNCCNC[Si](C)(C)C` the survivor count [11] was 0 of 6.
In the case of `COC(=O)CCC(=O)C(C#N)c1ccc(CC#N)cc1` (stereo not drawn), the survivor count [6] was 3 of 6 and the survivor count [2] was 0 of 6.
For `CC(=O)OC1C=CCC2C(=O)OC(=O)C12` (stereo not drawn), the survivor count (dose: 60.0 mg/kg/injection, schedule: Q01DX005 (ip), vehicle: Klucel (hydroxypropylcellulose) (HPC)) was 6 of 6 and the survivor count [8] was 6 of 6.
For `N#CC1CCCC(C#N)N1CN1C(C#N)CCCC1C#N` (stereo not drawn), the survivor count [9] was 5 of 5.
For `CN(C)C(=O)c1cc(C(=O)N(C)C)cc2cccc-2c1`, the survivor count (dose: 200.0 mg/kg/injection, schedule: Q04DX002 (ip), vehicle: saline) was 0 of 6 and the survivor count (dose: 400.0 mg/kg/injection, schedule: Q04DX002 (ip), vehicle: saline) was 0 of 6.
In the case of `COc1cc([C@@H]2c3cc4c(cc3[C@H](O)[C@H]3COC(=O)[C@@H]23)OCO4)cc(OC)c1OC`, the T/C (dose: 15.0 mg/kg/injection, schedule: Q01DX010 (ip), vehicle: saline) was 127 % of control, the survivor count (dose: 60.0 mg/kg/injection, schedule: Q01DX010 (ip), vehicle: saline) was 2 of 6 and the survivor count (dose: 120.0 mg/kg/injection, schedule: Q01DX010 (ip), vehicle: saline) was 2 of 6.
`C=NC1C=CCC=C1` was tested, and the survivor count [10] was 6 of 6.
In the case of `COc1cc([C@@H]2c3cc4c(cc3[C@H](OC(=O)CCC(=O)O)[C@H]3COC(=O)[C@H]23)OCO4)cc(OC)c1OC`, the T/C (dose: 12.5 mg/kg/injection, schedule: Q01DX005 (ip), vehicle: saline with Tween-80) was 129 % of control, the survivor count (dose: 25.0 mg/kg/injection, schedule: Q01DX005 (ip), vehicle: saline with Tween-80) was 4 of 6 and the survivor count (dose: 50.0 mg/kg/injection, schedule: Q01DX005 (ip), vehicle: saline with Tween-80) was 2 of 6 and 2 of 5. For the same compound, the survivor count [6] was 0 of 5 and the survivor count [2] was 0 of 5.
`O=Cc1ccc(O)c(O)c1` was tested, and the T/C (dose: 100.0 mg/kg/injection, schedule: Q01DX009 (ip), vehicle: saline) was 129 % of control, the T/C (dose: 200.0 mg/kg/injection, schedule: Q01DX009 (ip), vehicle: saline) was 126 and 131 % of control and the survivor count [12] was 2 of 6. For the same compound, the survivor count [13] was 0 of 6.
`O=C(c1ccc(Cl)cc1)c1no[n+]([O-])c1C(=O)c1ccc(Cl)cc1` was tested, and the T/C [3] was 142 % of control, the T/C [4] was 125 and 132 % of control and the survivor count [7] was 4 of 6. The survivor count (dose: 400.0 mg/kg/injection, schedule: Q01DX009 (ip), vehicle: saline with Tween-80) was 4 of 6.
